In publication PMC3135610:
These are yes or no findings as the source states them, for the method shown. Binding seen in cells or lysates may run through a third protein. Some results given as binding are weak or reduced against the parent protein; the word gives no strength. For some assays here: Tags and fused reporters may be left off the sequences shown.

By UniProt entry, the sequences of proteins in these tests, tags left out. Where a name states a change or a piece, a line headed by the entry shows the natural chain unless it says otherwise. Residues count along the entry.
UniProt P11940: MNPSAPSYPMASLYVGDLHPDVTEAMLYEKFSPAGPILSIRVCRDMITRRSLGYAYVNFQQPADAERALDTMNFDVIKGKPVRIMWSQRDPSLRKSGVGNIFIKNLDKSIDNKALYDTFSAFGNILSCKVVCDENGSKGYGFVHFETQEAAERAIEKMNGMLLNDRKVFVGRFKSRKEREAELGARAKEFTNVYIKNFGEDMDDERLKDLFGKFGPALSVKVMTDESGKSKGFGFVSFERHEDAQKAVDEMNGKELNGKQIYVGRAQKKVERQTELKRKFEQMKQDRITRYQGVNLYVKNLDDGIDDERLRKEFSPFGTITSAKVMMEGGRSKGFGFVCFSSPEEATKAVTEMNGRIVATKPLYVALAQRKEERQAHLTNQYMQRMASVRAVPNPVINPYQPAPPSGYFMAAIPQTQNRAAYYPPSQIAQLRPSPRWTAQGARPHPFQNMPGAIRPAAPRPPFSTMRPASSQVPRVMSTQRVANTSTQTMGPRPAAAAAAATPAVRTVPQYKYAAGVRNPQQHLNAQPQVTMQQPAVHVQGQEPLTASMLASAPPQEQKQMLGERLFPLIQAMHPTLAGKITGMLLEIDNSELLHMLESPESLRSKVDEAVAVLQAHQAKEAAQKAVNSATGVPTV
GST-PABP^554–636: residues 554-636 of P11940

Columns and labels:
GST-PABP^554–636 = GST-PABP^554–636 (UniProt P11940); test: pull-down; recombinant GST-PABP 554-636 incubated with crude HEK293 cell lysate, glutathione-sepharose beads, eluates immunoblotted; only the target purified
[1] = target: T1, GST-HELZ^1023–1199 (human) (UniProt P42694); test: pull-down; 0.5 µg recombinant GST fusion protein with 2.5 mg total HeLa cell extract (normoxic cells; also hypoxic cells) and glutathione-sepharose beads, 3 hours at 4°C, buffer A (20 mM Hepes/KOH pH 7.4, 100 mM KCl, 0.1% NP-40, 0.5 mM EDTA, 10% glycerol), ten washes, eluates immunoblotted; only the target purified
T1 sequence: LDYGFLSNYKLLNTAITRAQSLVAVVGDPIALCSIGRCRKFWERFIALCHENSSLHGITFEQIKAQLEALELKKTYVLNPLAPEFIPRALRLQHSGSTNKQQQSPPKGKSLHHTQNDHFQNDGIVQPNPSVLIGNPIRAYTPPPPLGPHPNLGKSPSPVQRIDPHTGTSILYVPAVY

binding (GST-PABP^554–636)	binding [1]	Substance
binds		endogenous HELZ (from UniProt P42694-1 1-1942)
	binds	poly(A)-binding protein (PABP) (from UniProt P11940 1-636)
